Data taken from patent publication US20080318268A1, “Devices and Methods for the Selection of Agents with Efficacy Against Biofilm” (priority 2005, published 2008).
For some assays here: At least one compound was matched to its structure with a doubt left. Some entries share one result that the patent states for a list of compounds.

How the values were obtained:
[1] = system: biofilm cells of C. albicans; experiment: Minimum biofilm eradication concentration assay, C. albicans biofilm; type: cell-based, Candida albicans; conditions: C. albicans isolate; breakpoint 64 μg/ml
Method: (§1) Three clinical isolates of Candida were used in this study, including one albicans and two non-albicans species. C. albicans ATCC 14053 was obtained from the University Of Calgary, Department Of Biological Sciences. C. tropicalis 99916 and C. glabrata 14326 were obtained from the dialysate of patients undergoing continued ambulatory peritoneal dialysis (CAPD). Aspergillus fumigatus was also tested.
Biofilm formation and measurement of antimicrobial sensitivity of Candida and Aspergillus biofilms were performed using an assembly of the present invention. The device features a microtiter plate lid with 96 pegs or projections distributed on the lid. Each peg provided the surface for microorganism to adhere, colonize and form a uniform biofilm. The pegs fit precisely into the wells of a standard 96-well microtiter plate. The lid was used in conjunction with a base having special troughs for growing, washing, and incubating fungi. […] It was determined in preliminary experiments that C. glabrata required 10% CO2 atmosphere for biofilms to form.
(§2) Biofilm susceptibility testing uses the pegged lid of the assembly, now containing biofilms formed after rocking in the tray for 24 hour. […] The turbidity of the wells that contained the antibiotic and planktonic cells which were shed from the biofilm was measured at 650 nm to obtain the MIC. […]

[2] = system: C. tropicalis biofilm cells; experiment: Minimum biofilm eradication concentration assay, C. tropicalis biofilm; type: cell-based, Candida tropicalis; conditions: C. tropicalis isolate; breakpoint 64 μg/ml
planktonic Candida cells = experiment: Planktonic antifungal sensitivity of Candida spp.; type: cell-based; conditions: all species tested
Method: as §1
as §2, with “hour. Each peg on the lid was gently washed once in 200 μl of phosphate buffered saline solution (PBSS) in a 96-well microtiter plate (Falcon).” for “hour.”
Minimum Inhibitory Concentrations (MIC) and Minimum Fungicidal Concentrations (MFC) were determined according to the guidelines of the National Committee for Clinical laboratory Standards (NCCLS). […]
The test wells were then incubated at 37° C. for 24 hours with the antifungal drugs. MICs for Candida were obtained after incubation by reading the turbidity at 650 nm on a microtiter plate reader (Softmax, VWR). […] MFCs were determined for Aspergillus by plating 100 μl from each well onto Rose Bengal Agar, followed by spreading with a sterile glass spreader. […]

SMILES | MBEC [1] [µg/mL] | MBEC [2] [µg/mL] | effectiveness in killing planktonic Candida cells (planktonic Candida cells)
OC(Cn1cncn1)(Cn1cncn1)c1ccc(F)cc1F [fluconazole, Fluconazole] | > 1024 | > 1024 | –
CCC(C)n1ncn(-c2ccc(N3CCN(c4ccc(OCC5COC(Cn6cncn6)(c6ccc(Cl)cc6Cl)O5)cc4)CC3)cc2)c1=O (centres unmarked) [itraconazole, Itraconazole] | > 1024 | > 1024 | effective
